These are yes or no findings as the source states them, for the method shown. Some results given as binding are weak or reduced against the parent protein; the word gives no strength. For some assays here: Where a sequence is shown, tags or fusion partners need not be part of it.
Experiments:
[1] = target: platelet GPIIIa (integrin beta3) on platelets (human) (UniProt P05106); experiment: 35S-labelled protein on gel filtered platelets, doubling concentrations, overnight at 4 C
[2] = target: platelet GPIIIa (integrin beta3) on platelets (human) (UniProt P05106); experiment: binding study on platelets as for 35S-ADAMTS-18

Protein sequences, listed by entry. Tags and fused reporters are not part of them. Residues count along the entry.
UniProt P05106, residues 27-788: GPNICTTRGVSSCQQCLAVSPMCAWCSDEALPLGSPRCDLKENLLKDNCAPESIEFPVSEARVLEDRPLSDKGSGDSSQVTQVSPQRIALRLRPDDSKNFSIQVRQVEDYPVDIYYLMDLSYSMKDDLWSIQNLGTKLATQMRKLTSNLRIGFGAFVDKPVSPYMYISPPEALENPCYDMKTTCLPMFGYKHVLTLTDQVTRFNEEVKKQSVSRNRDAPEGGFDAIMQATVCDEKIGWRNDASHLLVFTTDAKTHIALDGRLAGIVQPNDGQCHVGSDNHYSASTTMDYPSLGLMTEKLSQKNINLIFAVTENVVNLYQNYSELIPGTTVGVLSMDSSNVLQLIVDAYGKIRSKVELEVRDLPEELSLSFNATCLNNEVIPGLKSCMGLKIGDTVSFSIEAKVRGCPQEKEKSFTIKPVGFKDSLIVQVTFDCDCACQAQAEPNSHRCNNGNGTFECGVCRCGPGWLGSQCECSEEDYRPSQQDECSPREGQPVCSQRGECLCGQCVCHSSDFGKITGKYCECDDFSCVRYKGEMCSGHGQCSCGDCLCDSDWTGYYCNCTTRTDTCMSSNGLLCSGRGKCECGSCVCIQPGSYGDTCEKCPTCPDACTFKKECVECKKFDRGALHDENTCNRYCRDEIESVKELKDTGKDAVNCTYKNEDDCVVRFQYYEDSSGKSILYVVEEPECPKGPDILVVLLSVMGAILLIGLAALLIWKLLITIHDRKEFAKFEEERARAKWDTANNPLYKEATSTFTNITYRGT

Row | Binder | binding [1] | binding [2]
1 | ADAMTS-18 (ligand, 35S methionine (in the binding study)) SAGKSQKGLNVETLVVADKKMVEKHGKGNVTTYILTVMNMVSGLFKDGTIGSDINVVVVSLILLEQEPGGLLINHHADQSLNSFCQWQSALIGKNGKRHDHAILLTGFDICSWKNEPCDTLGFAPISGMCSKYRSCTINEDTGLGLAFTIAHESGHNFGMIHDGEGNPCRKAEGNIMSPTLTGNNGVFSWSSCSRQYLKKFLSTPQAGCLVDEPKQAGQYKYPDKLPGQIYDADTQCKWQFGAKAKLCSLGFVKDICKSLWCHRVGHRCETKFMPAAEGTVCGLSMWCRQGQCVKFGELGPRPIHGQWSAWSKWSECSRTCGGGVKFQERHCNNPKPQYGGLFCPGSSRIYQLCNINPCNENSLDFRAQQCAEYNSKPFRGWFYQWKPYTKVEEEDRCKLYCKAENFEFFFAMSGKVKDGTPCSPNKNDVCIDGVCELVGCDHELGSKAVSDACGVCKGDNSTCKFYKGLYLNQHKANEYYPVVLIPAGARSIEIQELQVSSSYLAVRSLSQKYYLTGGWSIDWPGEFPFAGTTFEYQRSFNRPERLYAPGPTNETLVFEILMQGKNPGIAWKYALPKVMNGTPPATKRPAYTWSIVQSECSVSCGGGYINVKAICLRDQNTQVNSSFCSAKTKPVTEPKICNAFSCPAYWMPGEWSTCSKACAGGQQSRKIQCVQKKPFQKEEAVLHSLCPVSTPTQVQACNSHACPPQWSLGPWSQCSKTCGRGVRKRELLCKGSAAETLPESQCTSLPRPELQEGCVLGRCPKNSRLQWVASSWSECSATCGLGVRKREMKCSEKGFQGKLITFPERRCRNIKKPNLDLEETCNRRACPAHPVYNMVAGWYSLPWQQCTVTCGGGVQTRSVHCVQQGRPSSSCLLHQKPPVLRACNTNFCPAPEKREDPSCVDFFNWCHLVPQHGVCNHKFYGKQCCKSCTRKI | binds | 
2 | ADAMTS-18 C-terminal 385 amino acid fragment (AD-18F) (ligand) NETLVFEILMQGKNPGIAWKYALPKVMNGTPPATKRPAYTWSIVQSECSVSCGGGYINVKAICLRDQNTQVNSSFCSAKTKPVTEPKICNAFSCPAYWMPGEWSTCSKACAGGQQSRKIQCVQKKPFQKEEAVLHSLCPVSTPTQVQACNSHACPPQWSLGPWSQCSKTCGRGVRKRELLCKGSAAETLPESQCTSLPRPELQEGCVLGRCPKNSRLQWVASSWSECSATCGLGVRKREMKCSEKGFQGKLITFPERRCRNIKKPNLDLEETCNRRACPAHPVYNMVAGWYSLPWQQCTVTCGGGVQTRSVHCVQQGRPSSSCLLHQKPPVLRACNTNFCPAPEKREDPSCVDFFNWCHLVPQHGVCNHKFYGKQCCKSCTRKI |  | binds

— US20110045008A1
